Measurements as given in the M2OR odorant receptor database.
The list shows a part of the results, in another mix than the full data. The calls were merged from several studies; some rest on single wells. The list shows a part of the results.

Legend:
Conditions in all cases: stereoisomer not certain
OR6V1 (Homo sapiens) = molecular target: T1, OR6V1 (Homo sapiens) (UniProt Q8N148)
T1 sequence (whole entry): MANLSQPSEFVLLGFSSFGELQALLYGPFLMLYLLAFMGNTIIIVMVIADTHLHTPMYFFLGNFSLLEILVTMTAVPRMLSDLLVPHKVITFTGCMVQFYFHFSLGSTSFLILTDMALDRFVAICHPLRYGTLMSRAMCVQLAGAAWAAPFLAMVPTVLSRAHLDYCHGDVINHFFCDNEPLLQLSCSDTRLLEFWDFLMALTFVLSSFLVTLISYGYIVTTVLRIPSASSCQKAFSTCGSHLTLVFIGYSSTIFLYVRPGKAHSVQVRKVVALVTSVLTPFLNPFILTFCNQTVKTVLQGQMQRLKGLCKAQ
Outline: (§1)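 Assay methods differ from source to source, frequently being transient luciferase assays in mammalian cell lines. For each receptor–molecule pair, the label responsive (active) applies when the original authors judged the measured signal statistically different from baseline, and non-responsive (inactive) applies otherwise.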

OR6X1 (Homo sapiens) = molecular target: T2, OR6X1 (Homo sapiens) (UniProt Q8NH79)
T2 sequence (whole entry): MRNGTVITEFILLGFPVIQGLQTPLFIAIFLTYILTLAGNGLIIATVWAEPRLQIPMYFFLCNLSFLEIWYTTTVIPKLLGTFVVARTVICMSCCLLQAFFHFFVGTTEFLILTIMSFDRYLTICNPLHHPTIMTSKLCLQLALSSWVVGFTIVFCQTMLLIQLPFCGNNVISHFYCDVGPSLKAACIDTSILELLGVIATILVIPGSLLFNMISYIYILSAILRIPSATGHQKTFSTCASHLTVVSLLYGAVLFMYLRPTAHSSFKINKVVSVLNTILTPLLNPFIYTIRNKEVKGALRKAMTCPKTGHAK
Outline: as §1

OR6Y1 = tested on: T3, OR6Y1
T3 sequence (whole entry): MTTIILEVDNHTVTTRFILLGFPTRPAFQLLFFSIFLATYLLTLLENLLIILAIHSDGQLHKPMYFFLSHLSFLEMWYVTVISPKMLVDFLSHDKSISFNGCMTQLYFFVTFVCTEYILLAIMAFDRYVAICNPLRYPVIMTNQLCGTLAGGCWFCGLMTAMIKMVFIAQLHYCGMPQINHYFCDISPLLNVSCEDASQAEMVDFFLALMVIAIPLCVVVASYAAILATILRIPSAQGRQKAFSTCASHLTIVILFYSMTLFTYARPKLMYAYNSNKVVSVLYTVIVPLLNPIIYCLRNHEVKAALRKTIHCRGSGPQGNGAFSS
Outline: as §1

OR7A10 (Homo sapiens) = molecular target: T4, OR7A10 (Homo sapiens) (UniProt O76100)
T4 sequence (whole entry): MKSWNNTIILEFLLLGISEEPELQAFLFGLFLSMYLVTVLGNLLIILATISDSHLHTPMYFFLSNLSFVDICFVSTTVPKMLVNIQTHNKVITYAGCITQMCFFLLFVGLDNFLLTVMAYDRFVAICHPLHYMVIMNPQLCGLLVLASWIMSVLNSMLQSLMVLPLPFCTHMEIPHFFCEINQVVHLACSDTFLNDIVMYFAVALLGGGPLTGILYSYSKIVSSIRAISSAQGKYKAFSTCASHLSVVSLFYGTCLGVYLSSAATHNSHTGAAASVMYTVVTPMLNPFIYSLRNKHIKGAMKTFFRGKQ
Outline: as §1

OR7A17 (Homo sapiens) = molecular target: T5, OR7A17 (Homo sapiens) (UniProt O14581)
T5 sequence (whole entry): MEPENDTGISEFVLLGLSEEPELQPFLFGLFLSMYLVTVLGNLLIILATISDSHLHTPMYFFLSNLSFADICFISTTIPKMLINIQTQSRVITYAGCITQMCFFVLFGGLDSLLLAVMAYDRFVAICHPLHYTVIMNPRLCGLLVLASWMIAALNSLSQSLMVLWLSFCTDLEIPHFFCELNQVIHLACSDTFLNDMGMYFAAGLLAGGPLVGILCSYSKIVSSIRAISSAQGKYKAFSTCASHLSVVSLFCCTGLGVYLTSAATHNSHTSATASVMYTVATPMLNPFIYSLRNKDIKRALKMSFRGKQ
Outline: as §1

OR7A5 (Homo sapiens) = molecular target: T6, OR7A5 (Homo sapiens) (UniProt Q15622)
T6 sequence (whole entry): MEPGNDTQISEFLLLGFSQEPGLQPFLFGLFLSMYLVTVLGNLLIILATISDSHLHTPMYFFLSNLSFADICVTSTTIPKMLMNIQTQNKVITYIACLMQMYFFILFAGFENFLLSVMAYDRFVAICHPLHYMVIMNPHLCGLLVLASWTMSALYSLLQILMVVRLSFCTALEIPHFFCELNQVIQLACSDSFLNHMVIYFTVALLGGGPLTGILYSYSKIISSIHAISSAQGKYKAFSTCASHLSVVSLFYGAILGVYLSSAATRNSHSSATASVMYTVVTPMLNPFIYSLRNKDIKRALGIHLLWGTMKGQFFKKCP
Outline: as §1

OR7C1 = tested on: T7, OR7C1
T7 sequence (whole entry): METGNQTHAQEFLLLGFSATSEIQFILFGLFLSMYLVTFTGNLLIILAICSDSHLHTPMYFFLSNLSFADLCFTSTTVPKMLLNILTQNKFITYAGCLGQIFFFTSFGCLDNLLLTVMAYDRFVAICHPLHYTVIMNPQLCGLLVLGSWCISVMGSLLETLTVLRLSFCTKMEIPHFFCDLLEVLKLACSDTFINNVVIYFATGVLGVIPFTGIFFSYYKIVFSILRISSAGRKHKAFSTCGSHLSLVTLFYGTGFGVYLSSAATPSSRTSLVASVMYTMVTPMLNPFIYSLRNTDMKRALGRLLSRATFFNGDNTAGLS
Outline: as §1

OR7C2 = tested on: T8, OR7C2
T8 sequence (whole entry): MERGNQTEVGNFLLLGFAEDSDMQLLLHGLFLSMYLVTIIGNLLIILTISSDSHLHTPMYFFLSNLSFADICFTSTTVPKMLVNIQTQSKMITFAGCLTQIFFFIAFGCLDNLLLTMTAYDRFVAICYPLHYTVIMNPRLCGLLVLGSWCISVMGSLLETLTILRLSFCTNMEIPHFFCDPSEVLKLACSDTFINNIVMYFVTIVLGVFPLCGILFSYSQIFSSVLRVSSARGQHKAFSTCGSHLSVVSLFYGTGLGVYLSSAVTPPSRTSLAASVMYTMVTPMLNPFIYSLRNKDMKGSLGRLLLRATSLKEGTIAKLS
Outline: as §1

OR7D2 = tested on: T9, OR7D2
T9 sequence (whole entry): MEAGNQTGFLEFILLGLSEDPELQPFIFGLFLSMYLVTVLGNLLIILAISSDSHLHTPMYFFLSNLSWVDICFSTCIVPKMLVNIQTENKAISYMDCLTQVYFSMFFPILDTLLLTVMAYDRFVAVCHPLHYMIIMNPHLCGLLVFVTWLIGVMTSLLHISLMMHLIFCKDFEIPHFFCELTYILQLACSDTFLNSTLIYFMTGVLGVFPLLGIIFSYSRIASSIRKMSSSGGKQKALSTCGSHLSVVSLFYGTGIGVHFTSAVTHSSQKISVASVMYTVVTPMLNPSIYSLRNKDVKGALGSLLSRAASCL
Outline: as §1

OR7D4 (Homo sapiens) = molecular target: T10, OR7D4 (Homo sapiens) (UniProt Q8NG98)
T10 sequence (whole entry): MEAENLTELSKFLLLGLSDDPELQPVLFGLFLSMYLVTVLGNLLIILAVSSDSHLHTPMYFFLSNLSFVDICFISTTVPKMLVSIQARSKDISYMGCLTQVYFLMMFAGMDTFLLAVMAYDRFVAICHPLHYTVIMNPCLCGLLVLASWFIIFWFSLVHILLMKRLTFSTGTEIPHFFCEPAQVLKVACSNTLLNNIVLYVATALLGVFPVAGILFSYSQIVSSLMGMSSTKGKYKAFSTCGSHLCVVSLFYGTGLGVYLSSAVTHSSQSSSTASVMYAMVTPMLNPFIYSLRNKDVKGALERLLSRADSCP
Outline: as §1

Measured: odorant receptor agonist call

CCC=CCCO
inactive: all assays above

CCC1(O)C2(C)CCC(C2)C1(C)C (centres undefined)
inactive: all assays above

CCCCCCCOC(C)=O
inactive: all assays above

CCCC(=O)O
inactive: all assays above

O=C1CCCCCCCCCCCCCCO1
inactive: all assays above

CCCCCC(C)=O
not listed: OR6V1 (Homo sapiens) | OR6X1 (Homo sapiens)
inactive: all other assays above

CC=Cc1ccc(O)c(OC)c1
active: OR6V1 (Homo sapiens) | OR6X1 (Homo sapiens)
inactive: all other assays above

COC(=O)c1ccccc1O
inactive: all assays above

COc1cc(C)ccc1O
inactive: all assays above

C=CCc1ccc(O)c(OC)c1
inactive: OR7D4 (Homo sapiens)

CC1CCC(C(C)C)C(O)C1 (centres undefined)
active: OR7A5 (Homo sapiens)
inactive: all other assays above

O=C1CCCCC1
not listed: OR6V1 (Homo sapiens) | OR6X1 (Homo sapiens)
inactive: all other assays above

COc1cc(C=O)ccc1O
inactive: all assays above

COC(=O)c1ccccc1
active: OR6Y1 | OR7A10 (Homo sapiens)
not listed: OR6V1 (Homo sapiens) | OR6X1 (Homo sapiens)
inactive: all other assays above

C=C(C)C1CC=C(C)C(=O)C1 (centres undefined)
inactive: OR7D4 (Homo sapiens)

CC(=O)C(C)=O
inactive: all assays above

CCCCCCOC(=O)CCC
inactive: all assays above

CCCCCCC=O
inactive: OR7D4 (Homo sapiens)

C=CCSCC=C
inactive: all assays above

CCCCCCCCC=O
inactive: OR7D4 (Homo sapiens)

C=CCc1ccc(OC)c(OC)c1
inactive: all assays above

CC(=O)c1ccccc1
active: OR7D4 (Homo sapiens)
not listed: OR6V1 (Homo sapiens) | OR6X1 (Homo sapiens)
inactive: all other assays above

CC(=O)OC(C)(C)C1CC=C(C)CC1 (centres undefined)
inactive: all assays above

CCCCCCCCCC=O
inactive: all assays above

CCCCCCCC=CC=O
active: OR6Y1
inactive: all other assays above

C=CCc1ccc(OC(C)=O)c(OC)c1
active: OR6V1 (Homo sapiens) | OR6X1 (Homo sapiens)
inactive: all other assays above

c1ccc(Oc2ccccc2)cc1
inactive: all assays above

CC1=NC(C)SC1C (centres undefined)
not listed: OR6V1 (Homo sapiens) | OR6X1 (Homo sapiens)
inactive: all other assays above

CC(=O)OC1CC2CCC1(C)C2(C)C (centres undefined)
inactive: all assays above
